Assay results from publication PMC10411459.
Results are given in words; binding and its absence hold for the method and conditions named. In cells and extracts the contact can be indirect. A yes stands for co-enrichment or nearness to the bait. Other partners may have been found. Where a sequence is shown, tags or fusion partners need not be part of it.

Amino acid sequences for entries named in this document (tags omitted).
UniProt P62136: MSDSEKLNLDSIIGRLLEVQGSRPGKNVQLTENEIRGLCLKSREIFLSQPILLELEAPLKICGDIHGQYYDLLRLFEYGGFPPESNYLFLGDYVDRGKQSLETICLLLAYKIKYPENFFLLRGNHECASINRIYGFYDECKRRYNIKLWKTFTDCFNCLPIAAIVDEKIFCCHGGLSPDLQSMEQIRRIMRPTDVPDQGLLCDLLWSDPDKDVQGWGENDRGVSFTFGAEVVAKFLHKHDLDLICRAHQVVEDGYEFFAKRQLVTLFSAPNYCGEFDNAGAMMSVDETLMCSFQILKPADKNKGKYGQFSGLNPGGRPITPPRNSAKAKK
UniProt P08670: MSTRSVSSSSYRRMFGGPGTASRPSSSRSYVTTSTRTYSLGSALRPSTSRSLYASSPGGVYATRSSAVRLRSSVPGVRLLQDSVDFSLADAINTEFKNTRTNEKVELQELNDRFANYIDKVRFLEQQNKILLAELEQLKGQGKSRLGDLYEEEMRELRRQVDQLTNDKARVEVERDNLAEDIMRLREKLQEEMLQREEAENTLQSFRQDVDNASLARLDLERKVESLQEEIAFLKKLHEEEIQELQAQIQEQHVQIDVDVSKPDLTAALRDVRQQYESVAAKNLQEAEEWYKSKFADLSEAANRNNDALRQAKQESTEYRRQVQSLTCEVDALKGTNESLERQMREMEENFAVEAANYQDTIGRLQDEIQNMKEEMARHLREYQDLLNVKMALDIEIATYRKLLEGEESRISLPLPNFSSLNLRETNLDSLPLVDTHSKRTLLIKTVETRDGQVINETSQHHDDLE

Biological target: T1, GP73-c-FLAG fusion protein (UniProt Q8NBJ4)
T1 sequence: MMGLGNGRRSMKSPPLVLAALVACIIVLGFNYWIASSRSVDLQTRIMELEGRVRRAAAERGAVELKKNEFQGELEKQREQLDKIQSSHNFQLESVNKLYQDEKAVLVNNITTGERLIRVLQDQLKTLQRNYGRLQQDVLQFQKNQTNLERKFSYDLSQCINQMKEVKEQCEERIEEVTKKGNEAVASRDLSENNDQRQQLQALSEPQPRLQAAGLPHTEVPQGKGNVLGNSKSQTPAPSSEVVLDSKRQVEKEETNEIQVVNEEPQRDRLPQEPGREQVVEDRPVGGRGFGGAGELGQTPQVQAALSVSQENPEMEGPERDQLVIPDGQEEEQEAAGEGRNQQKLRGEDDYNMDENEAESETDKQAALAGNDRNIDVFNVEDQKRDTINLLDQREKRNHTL
Assay: affinity purification with mass spectrometry; GP73-c-FLAG expressed in MHCC-97H cells, purified on Anti-FLAG M2 Affinity Gel, SDS-PAGE, bands digested, Triple-TOF 5600 LC-MS/MS, control pCMV3-c-FLAG

Substance	binding
Serine/Threonine-protein phosphatase PP1-alpha (from UniProt P62136 1-330) (enzyme)	binds
vimentin (from UniProt P08670 1-466)	binds
